Here are results for one molecule from article doi:10.1101/2022.05.16.492129.

These are yes or no findings as the source states them, for the method shown. For some assays here: A result given as binding can be weak or reduced; the word gives no strength. Tags and fused reporters may be left off the sequences shown.

Holding throughout (assay): flow cytometry on cells
In general terms: A flow cytometer gives signals particle by particle.

The target in test [1] is zebrafish Fzd3b eGFP fusion (zebrafish).
Test [2] has as its target zebrafish Fzd2 eGFP fusion (zebrafish).
In test [3] the target is zebrafish Fzd1 eGFP fusion (zebrafish).
The target of test [4] is zebrafish Fzd4 eGFP fusion (zebrafish).
Test [5] has as its target zebrafish Fzd7a eGFP fusion (zebrafish).

B1: zebrafish Cachd1 ectodomain prey protein, FLAG-tagged (domain or fragment, UniProt E7F5Q0 49-1108)
chain: DSEFSILEEAQVLAVQMKKLSTQELGVLTMQRIFNSFVYTEKTSNGETEVQQLAKKIREKFNRYLDVVNRNKQVVEASYTAHLTSPLTAIQDCCSIPPSMMEFDGNFNANVSKTVSCDRLSPTVNSRAFNPGRDLNSVLADNLKSNPGIKWQYFSSEEGIFTLFPAHKFHCKGTFEHRSRPVYVAAVRPQSKHIVVIIDHGASVTETQLQIARDAALVILNSIDEHDKISVLTIADTVRSCSLDQCYKSFLSPATSETKRKMSTFISNIKASDSSTQHAVGFQKAFQLLRNTSNVTRQLTNTDMMIIYLSSGITSRDSSEHEKRATLSAVKEENRHLNNSVMILTYALMNDGVTGLKELAFLRDLAEQNSLKYGVQDRSALPVVKGSMMVLNQLSNLETTVGRFYINLPNRMIDVATFSLPYADQMGDGFIMTVSRPCYFGNLLLGVVGVDVNLAYILEDVTYYQDSLASYTFLIDNKGYTLMHPSLTRPYLMTEAPLHTDIIHYENIPGFPVVRQNILSLPLGSQVIAVPVNSSLSWHMNRLRDPNRDAYNVSYAWKLVQDTSFILCIVYVQPEIPVKQLKNLNTAPSSKLLYHRLDLLGQPSSCLHFKQLATVESPTVMLSAGSFSSPYEHLSQPETKRMVEHYTAYLSDNTRLIANPGLKSSVRNEVMATSHVTDEWMSLMEMSSLNCYIVRRYIATPNGVLRIYPGSLMDKAFDPTRRQWYLHAVANPGLITFTGPYLDVGGAGYVVTISHTIHAPSSQMASGYTVAVMGIDFTLRYFYKVLLDLLPICNQDKGNKIRCFIMEDRGYLVAHPTLIDPKGHAPAEQQHITHKEPLVANDILNHPNFVKKNLCNSFSDRTVQRFYKFNTSIVGDLTNLVHGSHCSKYRLTRIPGTNAFAGIVNETCDALAFCACSTVDRLCLNCHRMEQNECECPCECPLEVNECTGNLTNAENRNPSCDVHQEPLSLTVIEPSLQDTLPQCINTRCSQRFTSSDCFGVLDCEWCMVDSDGKTHLDKPYCALQKECFGGIVGAKSPYVDGMGILDEELASLNMIKSAP
In the case of B1, the binding result in test [1] was “no binding”; in test [2], “binds”; in test [3], “binds”; in test [4] it was “no binding”; in test [5], “binds”.
